Literature values, collected in patent US20250114486A1, “MARKED FATTY ACID DERIVATIVE, PRECURSOR COMPOUND THEREOF, AND USE THEREOF IN CONTRAST AGENT” (BEIJING NORMAL UNIVERSITY, priority 2022, published 2025).
For at least one compound, name, drawing or mass did not settle the structure.

Settings: female SD rats, 30 min post-injection, reference 1; cited from earlier work

[99Tc].[C-]#[N+]CC(C)(C)OC.[C-]#[N+]CC(C)(C)OC.[C-]#[N+]CC(C)(C)OC.[C-]#[N+]CC(C)(C)OC.[C-]#[N+]CC(C)(C)OC.[C-]#[N+]CC(C)(C)OC [^99mTc-MIBI]
heart-to-lungs ratio: 5.17-0.39
